# Laboratory results reported in the supplement of paper PMC8728848.
# The list shows a part of the results.
# How the values were obtained:
# Assay in all cases: glycan array binding signal (z-score within array); higher = stronger binding
# Settings in all cases: glycan notation: IUPAC condensed, linker removed
# [1] = molecular target: Fuc(a1-2)Gal6S(b1-3)GlcNAc
# Summary of the method: (§1)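 Negative Z-scores can be read as non-binding. The Z-score is calculated within each array and then averaged across arrays of one protein sequence at different concentrations or buffers and across linkers. Arrays, 3228 in all, were curated from the Consortium for Functional Glycomics database and kept only where the protein sequence was available.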
# [2] = molecular target: Fuc(a1-2)Gal6S(b1-3)GlcNAc6S
# Summary of the method: as §1
# Fuc(a1-2)Gal6S(b1-4)Glc = molecular target: Fuc(a1-2)Gal6S(b1-4)Glc
# Summary of the method: as §1
# [3] = molecular target: Fuc(a1-2)Gal6S(b1-4)Glc6S
# Summary of the method: as §1
# Fuc(a1-2)[Gal(a1-3)]Gal = molecular target: Fuc(a1-2)[Gal(a1-3)]Gal
# Summary of the method: as §1
# [4] = molecular target: Fuc(a1-2)[Gal(a1-3)]Gal(b1-3)GalNAc
# Summary of the method: as §1
# [5] = molecular target: Fuc(a1-2)[Gal(a1-3)]Gal(b1-3)GalNAc(b1-3)Gal(a1-4)Gal(b1-4)Glc
# Summary of the method: as §1
# [6] = molecular target: Fuc(a1-2)[Gal(a1-3)]Gal(b1-3)GlcNAc
# Summary of the method: as §1
# [7] = molecular target: Fuc(a1-2)[Gal(a1-3)]Gal(b1-3)GlcNAc(b1-2)Man(a1-3)[Fuc(a1-2)[Gal(a1-3)]Gal(b1-3)GlcNAc(b1-2)Man(a1-6)]Man(b1-4)GlcNAc(b1-4)GlcNAc
# Summary of the method: as §1
# [8] = molecular target: Fuc(a1-2)[Gal(a1-3)]Gal(b1-3)GlcNAc(b1-2)Man(a1-3)[Fuc(a1-2)[Gal(a1-3)]Gal(b1-3)GlcNAc(b1-2)Man(a1-6)]Man(b1-4)GlcNAc(b1-4)[Fuc(a1-6)]GlcNAc
# Summary of the method: as §1
# [9] = molecular target: Fuc(a1-2)[Gal(a1-3)]Gal(b1-3)GlcNAc(b1-3)GalNAc
# Summary of the method: as §1
# [10] = molecular target: Fuc(a1-2)[Gal(a1-3)]Gal(b1-3)GlcNAc(b1-6)GalNAc
# Summary of the method: as §1
# [11] = molecular target: Fuc(a1-2)[Gal(a1-3)]Gal(b1-4)Glc
# Summary of the method: as §1
# [12] = molecular target: Fuc(a1-2)[Gal(a1-3)]Gal(b1-4)GlcNAc
# Summary of the method: as §1
# [13] = molecular target: Fuc(a1-2)[Gal(a1-3)]Gal(b1-4)GlcNAc(b1-2)Man
# Summary of the method: as §1
# [14] = molecular target: Fuc(a1-2)[Gal(a1-3)]Gal(b1-4)GlcNAc(b1-2)Man(a1-3)[Fuc(a1-2)[Gal(a1-3)]Gal(b1-4)GlcNAc(b1-2)Man(a1-6)]Man(b1-4)GlcNAc(b1-4)GlcNAc
# Summary of the method: as §1
# [15] = molecular target: Fuc(a1-2)[Gal(a1-3)]Gal(b1-4)GlcNAc(b1-2)Man(a1-3)[Fuc(a1-2)[Gal(a1-3)]Gal(b1-4)GlcNAc(b1-2)Man(a1-6)]Man(b1-4)GlcNAc(b1-4)[Fuc(a1-6)]GlcNAc
# Summary of the method: as §1
# [16] = molecular target: Fuc(a1-2)[Gal(a1-3)]Gal(b1-4)GlcNAc(b1-3)GalNAc
# Summary of the method: as §1
# [17] = molecular target: Fuc(a1-2)[Gal(a1-3)]Gal(b1-4)GlcNAc(b1-3)[Fuc(a1-2)[Gal(a1-3)]Gal(b1-4)GlcNAc(b1-6)]GalNAc
# Summary of the method: as §1
# [18] = molecular target: Fuc(a1-2)[Gal(a1-3)]Gal(b1-4)GlcNAc(b1-6)GalNAc
# Summary of the method: as §1
# [19] = molecular target: Fuc(a1-2)[Gal(a1-3)]Gal(b1-4)[Fuc(a1-3)]Glc
# Summary of the method: as §1
# [20] = molecular target: Fuc(a1-2)[Gal(a1-3)]Gal(b1-4)[Fuc(a1-3)]GlcNAc
# Summary of the method: as §1
# [21] = molecular target: Fuc(a1-2)[Gal(a1-3)]Gal(b1-4)[Fuc(a1-3)]GlcNAc(b1-3)GalNAc
# Summary of the method: as §1
# [22] = molecular target: Fuc(a1-2)[Gal(a1-4)]Gal(b1-4)GlcNAc
# Summary of the method: as §1
# [23] = molecular target: Fuc(a1-2)[GalNAc(a1-3)]Gal
# Summary of the method: as §1
# [24] = molecular target: Fuc(a1-2)[GalNAc(a1-3)]Gal(b1-3)GalNAc(a1-3)[Fuc(a1-2)]Gal(b1-4)GlcNAc
# Summary of the method: as §1
# [25] = molecular target: Fuc(a1-2)[GalNAc(a1-3)]Gal(b1-3)GalNAc(b1-3)Gal(a1-4)Gal(b1-4)Glc
# Summary of the method: as §1
# [26] = molecular target: Fuc(a1-2)[GalNAc(a1-3)]Gal(b1-3)GlcNAc
# Summary of the method: as §1
# [27] = molecular target: Fuc(a1-2)[GalNAc(a1-3)]Gal(b1-3)GlcNAc(b1-2)Man(a1-3)[Fuc(a1-2)[GalNAc(a1-3)]Gal(b1-3)GlcNAc(b1-2)Man(a1-6)]Man(b1-4)GlcNAc(b1-4)GlcNAc
# Summary of the method: as §1
# [28] = molecular target: Fuc(a1-2)[GalNAc(a1-3)]Gal(b1-3)GlcNAc(b1-2)Man(a1-3)[Fuc(a1-2)[GalNAc(a1-3)]Gal(b1-3)GlcNAc(b1-2)Man(a1-6)]Man(b1-4)GlcNAc(b1-4)[Fuc(a1-6)]GlcNAc
# Summary of the method: as §1
# [29] = molecular target: Fuc(a1-2)[GalNAc(a1-3)]Gal(b1-3)GlcNAc(b1-3)GalNAc
# Summary of the method: as §1
# [30] = molecular target: Fuc(a1-2)[GalNAc(a1-3)]Gal(b1-3)GlcNAc(b1-6)GalNAc
# Summary of the method: as §1
# [31] = molecular target: Fuc(a1-2)[GalNAc(a1-3)]Gal(b1-4)Glc
# Summary of the method: as §1
# [32] = molecular target: Fuc(a1-2)[GalNAc(a1-3)]Gal(b1-4)GlcNAc
# Summary of the method: as §1
# [33] = molecular target: Fuc(a1-2)[GalNAc(a1-3)]Gal(b1-4)GlcNAc(b1-2)Man
# Summary of the method: as §1
# [34] = molecular target: Fuc(a1-2)[GalNAc(a1-3)]Gal(b1-4)GlcNAc(b1-2)Man(a1-3)[Fuc(a1-2)[GalNAc(a1-3)]Gal(b1-4)GlcNAc(b1-2)Man(a1-6)]Man(b1-4)GlcNAc(b1-4)GlcNAc
# Summary of the method: as §1
# [35] = molecular target: Fuc(a1-2)[GalNAc(a1-3)]Gal(b1-4)GlcNAc(b1-2)Man(a1-3)[Fuc(a1-2)[GalNAc(a1-3)]Gal(b1-4)GlcNAc(b1-2)Man(a1-6)]Man(b1-4)GlcNAc(b1-4)[Fuc(a1-6)]GlcNAc
# Summary of the method: as §1
# [36] = molecular target: Fuc(a1-2)[GalNAc(a1-3)]Gal(b1-4)GlcNAc(b1-3)Gal(b1-4)GlcNAc
# Summary of the method: as §1
# [37] = molecular target: Fuc(a1-2)[GalNAc(a1-3)]Gal(b1-4)GlcNAc(b1-3)Gal(b1-4)GlcNAc(b1-3)Gal(b1-4)GlcNAc
# Summary of the method: as §1
# [38] = molecular target: Fuc(a1-2)[GalNAc(a1-3)]Gal(b1-4)GlcNAc(b1-3)GalNAc
# Summary of the method: as §1
# [39] = molecular target: Fuc(a1-2)[GalNAc(a1-3)]Gal(b1-4)GlcNAc(b1-3)[Fuc(a1-2)[GalNAc(a1-3)]Gal(b1-4)GlcNAc(b1-6)]GalNAc
# Summary of the method: as §1
# [40] = molecular target: Fuc(a1-2)[GalNAc(a1-3)]Gal(b1-4)GlcNAc(b1-6)GalNAc
# Summary of the method: as §1
# [41] = molecular target: Fuc(a1-2)[GalNAc(a1-3)]Gal(b1-4)[Fuc(a1-3)]GlcNAc
# Summary of the method: as §1
# [42] = molecular target: Fuc(a1-2)[GalNAc(a1-3)]Gal(b1-4)[Fuc(a1-3)]GlcNAc(b1-3)GalNAc
# Summary of the method: as §1
# [43] = molecular target: Fuc(a1-2)[GalNAc(a1-4)]Gal(b1-4)GlcNAc
# Summary of the method: as §1
binder,measurement,setting,value
"XTP3-B-MRH1 (Homo sapiens), Q96DZ1 (protein) LLEPLFKQSSCSYRIESYWTYEVCHGKHIRQYHEEKETGQKINIHEYYLGNMLAKNLLFEKEREAEEKEKSNEIPTKNIEGQMTPYYPVGMGNGTPCSLKQNRPRSSTVMYICHPESKHEILSVAEVTTCEYEVVILTPLLCSHPKYRFRA",glycan array binding signal (z-score),[1],-1.33
same,glycan array binding signal (z-score),[2],-0.535
same,glycan array binding signal (z-score),Fuc(a1-2)Gal6S(b1-4)Glc,0.127
same,glycan array binding signal (z-score),[3],-1.14
same,glycan array binding signal (z-score),Fuc(a1-2)[Gal(a1-3)]Gal,0.241
same,glycan array binding signal (z-score),[4],0.364
same,glycan array binding signal (z-score),[5],-1.56
same,glycan array binding signal (z-score),[6],-0.959
same,glycan array binding signal (z-score),[7],-0.637
same,glycan array binding signal (z-score),[8],-0.029
same,glycan array binding signal (z-score),[9],-0.684
same,glycan array binding signal (z-score),[10],0.707
same,glycan array binding signal (z-score),[11],0.657
same,glycan array binding signal (z-score),[12],-0.718
same,glycan array binding signal (z-score),[13],1.13
same,glycan array binding signal (z-score),[14],1.12
same,glycan array binding signal (z-score),[15],-1.42
same,glycan array binding signal (z-score),[16],-0.369
same,glycan array binding signal (z-score),[17],0.358
same,glycan array binding signal (z-score),[18],-1.51
same,glycan array binding signal (z-score),[19],0.04
same,glycan array binding signal (z-score),[20],0.588
same,glycan array binding signal (z-score),[21],-1.99
same,glycan array binding signal (z-score),[22],-0.021
same,glycan array binding signal (z-score),[23],-0.414
same,glycan array binding signal (z-score),[24],-1.23
same,glycan array binding signal (z-score),[25],-0.49
same,glycan array binding signal (z-score),[26],0.263
same,glycan array binding signal (z-score),[27],-0.282
same,glycan array binding signal (z-score),[28],-0.42
same,glycan array binding signal (z-score),[29],-1.53
same,glycan array binding signal (z-score),[30],-0.635
same,glycan array binding signal (z-score),[31],-0.351
same,glycan array binding signal (z-score),[32],-0.97
same,glycan array binding signal (z-score),[33],-1.18
same,glycan array binding signal (z-score),[34],-0.141
same,glycan array binding signal (z-score),[35],0.076
same,glycan array binding signal (z-score),[36],0.081
same,glycan array binding signal (z-score),[37],-0.886
same,glycan array binding signal (z-score),[38],-1.07
same,glycan array binding signal (z-score),[39],-1.21
same,glycan array binding signal (z-score),[40],-0.199
same,glycan array binding signal (z-score),[41],-0.718
same,glycan array binding signal (z-score),[42],0.398
same,glycan array binding signal (z-score),[43],0.488

# In another format: entries from further up
binder	measurement	setting	value
XTP3-B-MRH1 (Homo sapiens), Q96DZ1 (protein) LLEPLFKQSSCSYRIESYWTYEVCHGKHIRQYHEEKETGQKINIHEYYLGNMLAKNLLFEKEREAEEKEKSNEIPTKNIEGQMTPYYPVGMGNGTPCSLKQNRPRSSTVMYICHPESKHEILSVAEVTTCEYEVVILTPLLCSHPKYRFRA	glycan array binding signal (z-score)	[7]	-0.637
same	glycan array binding signal (z-score)	[8]	-0.029
same	glycan array binding signal (z-score)	[9]	-0.684
same	glycan array binding signal (z-score)	[10]	0.707
same	glycan array binding signal (z-score)	[11]	0.657
same	glycan array binding signal (z-score)	[12]	-0.718
same	glycan array binding signal (z-score)	[13]	1.13
same	glycan array binding signal (z-score)	[14]	1.12
same	glycan array binding signal (z-score)	[15]	-1.42
same	glycan array binding signal (z-score)	[16]	-0.369
same	glycan array binding signal (z-score)	[17]	0.358
same	glycan array binding signal (z-score)	[18]	-1.51
